From patent US8933235B2, “Pyridinedione carboxamide inhibitors of endothelial lipase” (Bristol-Myers Squibb Company, priority 2011, dated 2015)
Some results were stated once for a whole list of compounds, not compound by compound. For at least one compound, name, drawing or mass did not settle the structure.

Biological target: T1, endothelial lipase (EL) (Homo sapiens, UniProt Q9Y5X9)
T1 construct: Conditioned media obtained from HT-1080 cells, which were transformed by RAGE technology (Athersys) to overexpress endogenous EL; endogenous in cells; conditioned medium used as the enzyme source
T1 sequence (Q9Y5X9 21-500): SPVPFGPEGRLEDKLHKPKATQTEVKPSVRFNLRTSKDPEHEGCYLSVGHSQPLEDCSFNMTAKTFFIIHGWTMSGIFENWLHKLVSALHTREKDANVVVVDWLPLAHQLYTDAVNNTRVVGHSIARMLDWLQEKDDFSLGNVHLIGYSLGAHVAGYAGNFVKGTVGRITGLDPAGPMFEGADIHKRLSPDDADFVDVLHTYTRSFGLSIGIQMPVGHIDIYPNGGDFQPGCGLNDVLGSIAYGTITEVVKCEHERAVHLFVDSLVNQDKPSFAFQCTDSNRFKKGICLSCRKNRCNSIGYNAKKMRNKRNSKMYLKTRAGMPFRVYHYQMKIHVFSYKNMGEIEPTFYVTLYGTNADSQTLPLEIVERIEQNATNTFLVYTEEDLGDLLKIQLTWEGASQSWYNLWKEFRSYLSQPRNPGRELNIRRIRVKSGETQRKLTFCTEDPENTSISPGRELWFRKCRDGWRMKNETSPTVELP
Assay: Endothelial lipase (EL) enzymatic assay with fluorescent substrate A10070 in DMPG vesicles
Assay type: biochemical
Conditions: result in words
Method: Endothelial lipase activity was measured using a fluorescent substrate, A10070, (Invitrogen, CA) doped into an artificial vesicle containing DMPG (Avanti Polar Lipids) as the excipient. Vesicles were prepared by combining 285 uL of 1 mM DMPG in a 1:1 mixture of MeOH and CHCl3 with 15 uL of 1 mM A10070 in a 1:1 mixture of MeOH and CHCl3. The mixture was dried under nitrogen and resuspended in 150 uL of 50 mM HEPES pH 8.0 buffer containing 100 mM NaCl and 0.2 mM EDTA. The sample was allowed to sit at rt for 15 min and then was sonicated 3×4 mins on ice with a Branson Sonicator using duty cycle 1. This preparation provides vesicles with a mole fraction of 0.05 for the FRET substrate.
The enzymatic assay was measured using white, opaque 96-well half area plates. Each well contained 60 uL of assay buffer (50 mM HEPES pH 8.0, 50 mM NaCl and 1 mM CaCl2) and 2 ul of a DMSO solution containing compound of interest. Conditioned media obtained from HT-1080 cells, which were transformed by RAGE technology (Athersys) to overexpress endogenous EL, was added and the reaction was allowed to incubate for 20 min at 37° C. with gentle agitation. The reaction was started by the addition of 20 uL of a 1:4 dilution of vesicles. The final total reaction volume was 100 uL. The reaction rates were measured on a Gemini plate reader with an excitation wavelength of 488 nm and a emission of 530 nm. Readings were taken every 20 seconds for 10 min with agitation between each reading. The slope of the linear portion of the readout was used to calculate the rate of the reaction.

Q: `Cc1ccccc1OCCCNC(=O)c1cc(-c2cc(F)cc(C(F)(F)F)c2)n(C)c(=O)c1O` [Example 62, 6-(3-fluoro-5-(trifluoromethyl)phenyl)-3-hydroxy-1-methyl-2-oxo-N-(3-(o-tolyloxy)propyl)-1,2-dihydropyridine-4-carboxamide] was tested. Which EL inhibitory activity did it give?
A: The EL inhibitory activity was “found having EL inhibitory activity”.

Q: Which EL inhibitory activity does the source give for `Cn1c(-c2ccc(O)c(C(F)(F)F)c2)cc(C(=O)NCCCc2ccc(Cl)c(Cl)c2)c(O)c1=O` [Example 11, N-(3-(3,4-dichlorophenyl)propyl)-3-hydroxy-6-(4-hydroxy-3-(trifluoromethyl)phenyl)-1-methyl-2-oxo-1,2-dihydropyridine-4-carboxamide] here?
A: The EL inhibitory activity was “found having EL inhibitory activity”.

Q: `Cn1ccc(C(=O)NCCCOc2ccc(Cl)c(Cl)c2)c(O)c1=O` [Example 144, N-(3-(3,4-dichlorophenoxy)propyl)-3-hydroxy-1-methyl-2-oxo-1,2-dihydropyridine-4-carboxamide] was tested. Which EL inhibitory activity did it give?
A: The EL inhibitory activity was “found having EL inhibitory activity”.

Q: How did the EL inhibitory activity turn out when `Cn1c(C(F)(F)F)cc(C(=O)NCCCOc2ccc(Cl)cc2)c(O)c1=O` [Example 98, N-(3-(4-chlorophenoxy)propyl)-3-hydroxy-1-methyl-2-oxo-6-(trifluoromethyl)-1,2-dihydropyridine-4-carboxamide] was run?
A: Its EL inhibitory activity is “found having EL inhibitory activity”.

Q: With `Cn1ccc(C(=O)NCCCOc2cccc(Cl)c2)c(O)c1=O` [Example 204, N-(3-(3-chlorophenoxy)propyl)-3-hydroxy-1-methyl-2-oxo-1,2-dihydropyridine-4-carboxamide] as the compound, how does the EL inhibitory activity read?
A: Its EL inhibitory activity is “found having EL inhibitory activity”.

Q: Which EL inhibitory activity does the source give for `O=C(NCCCc1ccc(Cl)c(Cl)c1)c1ccn(-c2ccccc2)c(=O)c1O` [Example 180, N-(3-(3,4-dichlorophenyl)propyl)-3-hydroxy-2-oxo-1-phenyl-1,2-dihydropyridine-4-carboxamide] here?
A: The EL inhibitory activity was “found having EL inhibitory activity”.

Q: How did the EL inhibitory activity turn out when `Cn1c(-c2cccc(C(F)(F)F)c2)cc(C(=O)NCCCc2ccc(Cl)c(Cl)c2)c(O)c1=O` [Example 1, N-(3-(3,4-dichlorophenyl)propyl)-3-hydroxy-1-methyl-2-oxo-6-(3-(trifluoromethyl)phenyl)-1,2-dihydropyridine-4-carboxamide] was run?
A: Its EL inhibitory activity is “found having EL inhibitory activity”.

Q: With `Cn1c(-c2cccc(S(N)(=O)=O)c2)cc(C(=O)NCCCc2ccc(Cl)c(Cl)c2)c(O)c1=O` [Example 37, N-(3-(3,4-dichlorophenyl)propyl)-3-hydroxy-1-methyl-2-oxo-6-(3-sulfamoylphenyl)-1,2-dihydropyridine-4-carboxamide] as the compound, how does the EL inhibitory activity read?
A: The EL inhibitory activity was “found having EL inhibitory activity”.

Q: Which EL inhibitory activity does the source give for `CC(CCc1ccccc1)NC(=O)c1ccn(C)c(=O)c1O` (centres unmarked) [Example 126, 3-hydroxy-1-methyl-2-oxo-N-(4-phenylbutan-2-yl)-1,2-dihydropyridine-4-carboxamide] here?
A: The EL inhibitory activity was “found having EL inhibitory activity”.

Q: `Cn1c(-c2cccc(F)c2)cc(C(=O)NCCCc2ccc(Cl)c(Cl)c2)c(O)c1=O` [Example 3, N-(3-(3,4-dichlorophenyl)propyl)-6-(3-fluorophenyl)-3-hydroxy-1-methyl-2-oxo-1,2-dihydropyridine-4-carboxamide] was tested. Which EL inhibitory activity did it give?
A: Its EL inhibitory activity is “found having EL inhibitory activity”.

Q: For `Cn1c(-c2cccc(S(C)(=O)=O)c2)cc(C(=O)NCCCc2ccc(Cl)c(Cl)c2)c(O)c1=O` [Example 28, N-(3-(3,4-dichlorophenyl)propyl)-3-hydroxy-1-methyl-6-(3-(methylsulfonyl)phenyl)-2-oxo-1,2-dihydropyridine-4-carboxamide], which EL inhibitory activity is on record?
A: The EL inhibitory activity was “found having EL inhibitory activity”.

Q: How did the EL inhibitory activity turn out when `O=C(NCCCc1ccc(Cl)c(Cl)c1)c1ccn(CCc2ccccc2O)c(=O)c1O` [Example 173, N-(3-(3,4-dichlorophenyl)propyl)-3-hydroxy-1-(2-hydroxyphenethyl)-2-oxo-1,2-dihydropyridine-4-carboxamide] was run?
A: Its EL inhibitory activity is “found having EL inhibitory activity”.

Q: Which EL inhibitory activity does the source give for `Cn1ccc(C(=O)NCc2ccc(OC(F)(F)F)cc2)c(O)c1=O` [Example 134, 3-hydroxy-1-methyl-2-oxo-N-(4-(trifluoromethoxy)benzyl)-1,2-dihydropyridine-4-carboxamide] here?
A: Its EL inhibitory activity is “found having EL inhibitory activity”.

Q: `CN(C)C(=O)c1cccc(-c2cc(C(=O)NCCCc3ccc(Cl)c(Cl)c3)c(O)c(=O)n2C)c1` [Example 35, N-(3-(3,4-dichlorophenyl)propyl)-6-(3-(dimethylcarbamoyl)phenyl)-3-hydroxy-1-methyl-2-oxo-1,2-dihydropyridine-4-carboxamide] was tested. Which EL inhibitory activity did it give?
A: Its EL inhibitory activity is “found having EL inhibitory activity”.

Q: How did the EL inhibitory activity turn out when `CC(C)Oc1c(C(=O)NCCCc2ccc(Cl)c(Cl)c2)ccn(C(C)C)c1=O` [Example 153, N-(3-(3,4-dichlorophenyl)propyl)-3-isopropoxy-1-isopropyl-2-oxo-1,2-dihydropyridine-4-carboxamide] was run?
A: Its EL inhibitory activity is “found having EL inhibitory activity”.

Q: For `CCc1cccc(-c2cc(C(=O)NCCCc3ccc(Cl)c(Cl)c3)c(O)c(=O)n2C)c1` [Example 26, N-(3-(3,4-dichlorophenyl)propyl)-6-(3-ethylphenyl)-3-hydroxy-1-methyl-2-oxo-1,2-dihydropyridine-4-carboxamide], which EL inhibitory activity is on record?
A: The EL inhibitory activity was “found having EL inhibitory activity”.

Q: `Cn1ccc(C(=O)NCCCc2c(Cl)cccc2Cl)c(O)c1=O` [Example 149, N-(3-(2,6-dichlorophenyl)propyl)-3-hydroxy-1-methyl-2-oxo-1,2-dihydropyridine-4-carboxamide] was tested. Which EL inhibitory activity did it give?
A: The EL inhibitory activity was “found having EL inhibitory activity”.

Q: For `Cc1ccccc1OCCCNC(=O)c1ccn(C)c(=O)c1O` [Example 138, 3-hydroxy-1-methyl-2-oxo-N-(3-(o-tolyloxy)propyl)-1,2-dihydropyridine-4-carboxamide], which EL inhibitory activity is on record?
A: Its EL inhibitory activity is “found having EL inhibitory activity”.

Q: `Cn1c(-c2cc(F)cc(C(F)(F)F)c2)cc(C(=O)NCCCN2CCCC2=O)c(O)c1=O` [Example 49, 6-(3-fluoro-5-(trifluoromethyl)phenyl)-3-hydroxy-1-methyl-2-oxo-N-(3-(2-oxopyrrolidin-1-yl)propyl)-1,2-dihydropyridine-4-carboxamide] was tested. Which EL inhibitory activity did it give?
A: Its EL inhibitory activity is “found having EL inhibitory activity”.

Q: `Cn1c(-c2ccc(C#N)cc2)cc(C(=O)NCCCc2ccc(Cl)c(Cl)c2)c(O)c1=O` [Example 33, 6-(4-cyanophenyl)-N-(3-(3,4-dichlorophenyl)propyl)-3-hydroxy-1-methyl-2-oxo-1,2-dihydropyridine-4-carboxamide] was tested. Which EL inhibitory activity did it give?
A: Its EL inhibitory activity is “found having EL inhibitory activity”.

Q: With `CC(C)Cn1ccc(C(=O)NCCCc2ccc(Cl)c(Cl)c2)c(O)c1=O` [Example 155, N-(3-(3,4-dichlorophenyl)propyl)-3-hydroxy-1-isobutyl-2-oxo-1,2-dihydropyridine-4-carboxamide] as the compound, how does the EL inhibitory activity read?
A: Its EL inhibitory activity is “found having EL inhibitory activity”.

Q: `Cn1ccc(C(=O)NCCCc2ccccc2C(F)(F)F)c(O)c1=O` [Example 166, 3-hydroxy-1-methyl-2-oxo-N-(3-(2-(trifluoromethyl)phenyl)propyl)-1,2-dihydropyridine-4-carboxamide] was tested. Which EL inhibitory activity did it give?
A: The EL inhibitory activity was “found having EL inhibitory activity”.

Q: With `Cc1c(-c2cc(F)cc(F)c2)c(C(=O)NCCCc2ccc(Cl)c(Cl)c2)c(O)c(=O)n1C` [Example 108, N-(3-(3,4-dichlorophenyl)propyl)-5-(3,5-difluorophenyl)-3-hydroxy-1,6-dimethyl-2-oxo-1,2-dihydropyridine-4-carboxamide] as the compound, how does the EL inhibitory activity read?
A: Its EL inhibitory activity is “found having EL inhibitory activity”.
